# Reference: patent publication EP4725957A1 (Institute of Medicinal Biotechnology, Chinese Academy of …, priority 2023, dated 2024)
# Assay: general procedure: Fmoc solid-phase peptide synthesis; 2-chlorotrityl chloride resin (2-Cl-Trt, 0.5 mmol/g)
# Conditions: whole synthesis; for final HPLC purity: area integration of the chromatogram; for final HPLC purity / isolated yield: scale of the general procedure 0.5 mmol; for isolated yield: based on 0.5 mmol of 2-Cl-Trt resin
Substance,isolated mass [mg],final HPLC purity [%],isolated yield [%],isolated mass (scale 0.5 mmol) [mg]
"PEPTIDE1{[6-methylheptanoyl].[Dab(CH2SO3H)].T.[dS].[Dab].[Dab].[dF].T.[Dab].[Dab].T}$PEPTIDE1,PEPTIDE1,5:R3-11:R2$$$V2.0",245,>99.0,38.9,–
"PEPTIDE1{[6-methylheptanoyl].[Dab].T.[D-Ser(CH2SO3H)].[Dab].[Dab].[dF].T.[Dab].[Dab].T}$PEPTIDE1,PEPTIDE1,5:R3-11:R2$$$V2.0",240,>99.0,38.1,–
"PEPTIDE1{[6-methylheptanoyl].[Dab].T.[Dap(CH2SO3H)].[Dab].[Dab].[dF].T.[Dab].[Dab].T}$PEPTIDE1,PEPTIDE1,5:R3-11:R2$$$V2.0",240,>99.0,38.2,–
"PEPTIDE1{[6-methylheptanoyl].[Dab].T.[Dap].[Dab].[Dab].[dF].T.[Dab].[Dab].[Thr(CH2SO3H)]}$PEPTIDE1,PEPTIDE1,5:R3-11:R2$$$V2.0",250,>99.0,39.7,–
"PEPTIDE1{[6-methylheptanoyl].[Dab].T.[Dap].[Dab].[Dab].[dF].[Thr(CH2SO3H)].[Dab].[Dab].T}$PEPTIDE1,PEPTIDE1,5:R3-11:R2$$$V2.0",248,>99.0,39.4,–
"PEPTIDE1{[6-methylheptanoyl].[Dab].T.[dS].[Dab].[Dab(CH2SO3H)].[dF].T.[Dab].[Dab].T}$PEPTIDE1,PEPTIDE1,5:R3-11:R2$$$V2.0",248,>99.0,39.4,–
"PEPTIDE1{[6-methylheptanoyl].[Dab].T.[dS].[Dab].[Dab].[D-Phe(4-CH2SO3H)].T.[Dab].[Dab].T}$PEPTIDE1,PEPTIDE1,5:R3-11:R2$$$V2.0",260,>99.0,41.3,–
"PEPTIDE1{[6-methylheptanoyl].[Dab].T.[dS].[Dab].[Dab].[dF].T.[Dab(CH2SO3H)].[Dab].T}$PEPTIDE1,PEPTIDE1,5:R3-11:R2$$$V2.0",250,>99.0,39.7,–
"PEPTIDE1{[6-methylheptanoyl].[Dab].T.[dS].[Dab].[Dab].[dF].T.[Dab].[Dab(CH2SO3H)].T}$PEPTIDE1,PEPTIDE1,5:R3-11:R2$$$V2.0",260,>99.0,41.3,–
"PEPTIDE1{[6-methylheptanoyl].[Dab].T.[dS].[Dab].[Dab].[dF].T.[Dab].[Dab].[Thr(CH2SO3H)]}$PEPTIDE1,PEPTIDE1,5:R3-11:R2$$$V2.0",250,>99.0,39.7,–
"PEPTIDE1{[6-methylheptanoyl].[Dab].T.[dS].[Dab].[Dab].[dF].[Thr(CH2SO3H)].[Dab].[Dab].T}$PEPTIDE1,PEPTIDE1,5:R3-11:R2$$$V2.0",248,>99.0,39.4,–
"PEPTIDE1{[6-methylheptanoyl].[Dab].[Thr(CH2SO3H)].[Dap].[Dab].[Dab].[dF].T.[Dab].[Dab].T}$PEPTIDE1,PEPTIDE1,5:R3-11:R2$$$V2.0",245,>99.0,38.9,–
"PEPTIDE1{[6-methylheptanoyl].[Dab].[Thr(CH2SO3H)].[dS].[Dab].[Dab].[dF].T.[Dab].[Dab].T}$PEPTIDE1,PEPTIDE1,5:R3-11:R2$$$V2.0",245,>99.0,38.9,–
"PEPTIDE1{[6MeHep].[Dab(CH2SO3H)].T.[Dap].[Dab].[Dab].[dF].T.[Dab].[Dab].T}$PEPTIDE1,PEPTIDE1,5:R3-11:R2$$$V2.0",245,>99.0,38.9,–
"PEPTIDE1{[6MeHep].[Dab].T.[Dap].[Dab].[Dab(CH2SO3H)].[dF].T.[Dab].[Dab].T}$PEPTIDE1,PEPTIDE1,5:R3-11:R2$$$V2.0",248,>99.0,39.4,–
"PEPTIDE1{[6MeHep].[Dab].T.[Dap].[Dab].[Dab].[D-Phe(4-CH2SO3H)].T.[Dab].[Dab].T}$PEPTIDE1,PEPTIDE1,5:R3-11:R2$$$V2.0",260,>99.0,41.3,–
"PEPTIDE1{[6MeHep].[Dab].T.[Dap].[Dab].[Dab].[dF].T.[Dab(CH2SO3H)].[Dab].T}$PEPTIDE1,PEPTIDE1,5:R3-11:R2$$$V2.0",250,>99.0,39.7,–
"PEPTIDE1{[6MeHep].[Dab].T.[Dap].[Dab].[Dab].[dF].T.[Dab].[Dab(CH2SO3H)].T}$PEPTIDE1,PEPTIDE1,5:R3-11:R2$$$V2.0",260,>99.0,41.3,–
"PEPTIDE1{[Nonanoyl].[Dab].T.[D-Orn].[Dab].[Dab].[dF].L.[Dab].[Dab].T}$PEPTIDE1,PEPTIDE1,5:R3-11:R2$$$V2.0",–,>99.0,41.9,255

# Some peptides are written in HELM: one residue between dots, names in brackets for other building blocks, links after the first $.
